In the supplement of paper PMC10849652:
Some of the results follow.

By UniProt entry, the sequences of proteins in these tests, tags left out. Where a name states a change or a piece, a line headed by the entry shows the natural chain unless it says otherwise.
UniProt P62304, whole entry, looked up: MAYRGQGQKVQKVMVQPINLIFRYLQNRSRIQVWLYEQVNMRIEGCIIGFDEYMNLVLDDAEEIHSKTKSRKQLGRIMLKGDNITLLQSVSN
UniProt Q53HV7: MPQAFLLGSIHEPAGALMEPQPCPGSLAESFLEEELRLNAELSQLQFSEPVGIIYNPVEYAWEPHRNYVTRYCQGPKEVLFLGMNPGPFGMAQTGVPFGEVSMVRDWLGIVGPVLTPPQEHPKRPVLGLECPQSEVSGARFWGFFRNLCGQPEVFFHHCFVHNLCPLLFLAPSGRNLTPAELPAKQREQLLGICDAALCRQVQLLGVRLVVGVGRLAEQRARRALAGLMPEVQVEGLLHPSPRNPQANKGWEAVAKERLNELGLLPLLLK
UniProt P00441, whole entry, looked up: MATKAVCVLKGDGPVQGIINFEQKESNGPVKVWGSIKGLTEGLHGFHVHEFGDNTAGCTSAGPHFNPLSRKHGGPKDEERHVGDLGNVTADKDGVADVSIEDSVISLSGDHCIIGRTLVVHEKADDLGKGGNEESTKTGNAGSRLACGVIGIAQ
UniProt O75940: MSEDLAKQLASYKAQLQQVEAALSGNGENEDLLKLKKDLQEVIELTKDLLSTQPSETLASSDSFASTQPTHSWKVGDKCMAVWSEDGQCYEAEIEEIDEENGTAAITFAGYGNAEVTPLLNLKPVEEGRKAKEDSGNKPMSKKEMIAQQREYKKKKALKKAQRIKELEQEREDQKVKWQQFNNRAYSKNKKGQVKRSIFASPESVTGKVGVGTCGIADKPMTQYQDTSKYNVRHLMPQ
UniProt Q9NRS6: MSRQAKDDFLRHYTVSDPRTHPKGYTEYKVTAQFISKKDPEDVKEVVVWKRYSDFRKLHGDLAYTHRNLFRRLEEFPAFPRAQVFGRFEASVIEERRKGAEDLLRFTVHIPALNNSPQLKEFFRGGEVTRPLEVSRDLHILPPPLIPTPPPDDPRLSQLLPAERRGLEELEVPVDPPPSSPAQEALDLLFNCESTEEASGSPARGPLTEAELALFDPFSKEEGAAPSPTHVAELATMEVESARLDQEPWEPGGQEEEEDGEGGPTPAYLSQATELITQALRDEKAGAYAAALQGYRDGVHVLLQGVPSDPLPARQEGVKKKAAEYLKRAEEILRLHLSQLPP
UniProt P62308, whole entry, looked up: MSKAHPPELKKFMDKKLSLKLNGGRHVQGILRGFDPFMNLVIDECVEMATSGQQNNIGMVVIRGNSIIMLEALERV
UniProt Q96KF7: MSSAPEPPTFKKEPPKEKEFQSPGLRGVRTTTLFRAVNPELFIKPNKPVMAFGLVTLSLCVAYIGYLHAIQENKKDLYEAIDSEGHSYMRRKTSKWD
UniProt O75643, whole entry, looked up: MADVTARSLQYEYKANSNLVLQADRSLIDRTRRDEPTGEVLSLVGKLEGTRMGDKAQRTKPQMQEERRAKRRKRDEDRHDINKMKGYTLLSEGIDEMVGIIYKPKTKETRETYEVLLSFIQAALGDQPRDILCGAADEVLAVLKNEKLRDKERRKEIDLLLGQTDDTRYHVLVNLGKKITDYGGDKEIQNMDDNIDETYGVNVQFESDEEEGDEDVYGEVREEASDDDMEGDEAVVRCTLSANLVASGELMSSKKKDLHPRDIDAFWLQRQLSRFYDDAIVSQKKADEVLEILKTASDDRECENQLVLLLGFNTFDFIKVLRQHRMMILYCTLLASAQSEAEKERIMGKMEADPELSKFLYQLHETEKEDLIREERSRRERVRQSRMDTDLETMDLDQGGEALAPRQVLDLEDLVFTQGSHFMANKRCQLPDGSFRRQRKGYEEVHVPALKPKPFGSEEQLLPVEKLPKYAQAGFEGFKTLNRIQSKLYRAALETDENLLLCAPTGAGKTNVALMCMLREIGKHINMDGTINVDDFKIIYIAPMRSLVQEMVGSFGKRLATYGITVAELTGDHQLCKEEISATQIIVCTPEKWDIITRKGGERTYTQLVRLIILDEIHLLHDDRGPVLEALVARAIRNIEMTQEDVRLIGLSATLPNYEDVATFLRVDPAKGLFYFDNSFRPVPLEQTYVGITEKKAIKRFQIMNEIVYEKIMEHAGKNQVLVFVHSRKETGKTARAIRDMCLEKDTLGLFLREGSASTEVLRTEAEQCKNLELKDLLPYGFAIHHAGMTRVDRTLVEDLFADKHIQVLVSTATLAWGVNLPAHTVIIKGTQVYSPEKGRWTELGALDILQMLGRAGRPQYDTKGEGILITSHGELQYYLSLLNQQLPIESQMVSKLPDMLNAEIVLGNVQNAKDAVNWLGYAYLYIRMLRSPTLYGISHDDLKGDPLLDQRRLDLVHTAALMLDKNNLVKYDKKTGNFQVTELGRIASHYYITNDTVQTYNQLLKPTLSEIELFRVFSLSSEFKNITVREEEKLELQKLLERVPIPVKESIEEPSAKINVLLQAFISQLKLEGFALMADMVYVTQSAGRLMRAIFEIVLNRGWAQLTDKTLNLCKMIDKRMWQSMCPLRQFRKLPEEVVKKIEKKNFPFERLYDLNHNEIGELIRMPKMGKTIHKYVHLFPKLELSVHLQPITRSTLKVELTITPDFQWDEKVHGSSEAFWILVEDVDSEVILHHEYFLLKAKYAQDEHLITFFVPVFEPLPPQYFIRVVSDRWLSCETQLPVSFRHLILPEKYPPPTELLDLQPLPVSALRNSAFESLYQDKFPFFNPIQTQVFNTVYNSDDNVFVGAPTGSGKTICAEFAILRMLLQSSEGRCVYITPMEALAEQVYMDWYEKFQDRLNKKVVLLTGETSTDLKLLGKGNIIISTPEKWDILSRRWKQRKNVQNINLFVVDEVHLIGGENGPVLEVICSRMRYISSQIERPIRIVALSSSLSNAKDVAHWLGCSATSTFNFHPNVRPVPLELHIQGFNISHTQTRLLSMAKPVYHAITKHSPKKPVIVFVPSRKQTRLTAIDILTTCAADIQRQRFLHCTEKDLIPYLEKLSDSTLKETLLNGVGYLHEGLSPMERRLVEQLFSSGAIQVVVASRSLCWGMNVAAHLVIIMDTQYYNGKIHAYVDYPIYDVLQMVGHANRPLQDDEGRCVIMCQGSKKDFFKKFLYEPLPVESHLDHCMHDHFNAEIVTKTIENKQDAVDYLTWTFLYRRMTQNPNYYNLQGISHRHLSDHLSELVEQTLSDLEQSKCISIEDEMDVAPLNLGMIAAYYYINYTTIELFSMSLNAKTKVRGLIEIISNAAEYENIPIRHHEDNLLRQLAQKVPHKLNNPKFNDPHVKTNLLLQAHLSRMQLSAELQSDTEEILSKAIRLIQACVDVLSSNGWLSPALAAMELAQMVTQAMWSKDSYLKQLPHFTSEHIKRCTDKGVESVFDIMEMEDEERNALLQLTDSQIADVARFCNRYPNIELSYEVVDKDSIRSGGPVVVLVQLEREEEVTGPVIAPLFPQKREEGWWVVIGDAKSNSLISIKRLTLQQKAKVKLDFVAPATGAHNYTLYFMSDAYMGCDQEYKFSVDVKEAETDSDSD
UniProt Q6GMV2: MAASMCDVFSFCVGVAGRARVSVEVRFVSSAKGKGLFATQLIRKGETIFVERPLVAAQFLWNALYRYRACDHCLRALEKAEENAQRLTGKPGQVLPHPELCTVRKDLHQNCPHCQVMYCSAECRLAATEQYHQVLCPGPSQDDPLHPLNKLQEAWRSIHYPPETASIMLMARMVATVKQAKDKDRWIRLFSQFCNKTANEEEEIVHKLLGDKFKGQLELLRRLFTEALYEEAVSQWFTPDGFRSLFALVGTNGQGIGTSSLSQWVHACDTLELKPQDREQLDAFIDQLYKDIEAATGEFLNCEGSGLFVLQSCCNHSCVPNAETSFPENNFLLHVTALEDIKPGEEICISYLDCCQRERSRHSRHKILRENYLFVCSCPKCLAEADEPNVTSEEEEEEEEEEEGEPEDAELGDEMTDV
UniProt P09486: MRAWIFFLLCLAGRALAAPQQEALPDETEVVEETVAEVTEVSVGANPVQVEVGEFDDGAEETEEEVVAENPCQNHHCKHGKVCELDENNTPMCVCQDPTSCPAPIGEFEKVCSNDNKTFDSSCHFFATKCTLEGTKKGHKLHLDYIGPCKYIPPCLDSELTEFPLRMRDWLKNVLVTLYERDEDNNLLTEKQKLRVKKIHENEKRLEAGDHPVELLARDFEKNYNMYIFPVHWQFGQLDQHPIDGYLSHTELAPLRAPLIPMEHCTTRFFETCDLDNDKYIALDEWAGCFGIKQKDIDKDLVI
UniProt Q96R06: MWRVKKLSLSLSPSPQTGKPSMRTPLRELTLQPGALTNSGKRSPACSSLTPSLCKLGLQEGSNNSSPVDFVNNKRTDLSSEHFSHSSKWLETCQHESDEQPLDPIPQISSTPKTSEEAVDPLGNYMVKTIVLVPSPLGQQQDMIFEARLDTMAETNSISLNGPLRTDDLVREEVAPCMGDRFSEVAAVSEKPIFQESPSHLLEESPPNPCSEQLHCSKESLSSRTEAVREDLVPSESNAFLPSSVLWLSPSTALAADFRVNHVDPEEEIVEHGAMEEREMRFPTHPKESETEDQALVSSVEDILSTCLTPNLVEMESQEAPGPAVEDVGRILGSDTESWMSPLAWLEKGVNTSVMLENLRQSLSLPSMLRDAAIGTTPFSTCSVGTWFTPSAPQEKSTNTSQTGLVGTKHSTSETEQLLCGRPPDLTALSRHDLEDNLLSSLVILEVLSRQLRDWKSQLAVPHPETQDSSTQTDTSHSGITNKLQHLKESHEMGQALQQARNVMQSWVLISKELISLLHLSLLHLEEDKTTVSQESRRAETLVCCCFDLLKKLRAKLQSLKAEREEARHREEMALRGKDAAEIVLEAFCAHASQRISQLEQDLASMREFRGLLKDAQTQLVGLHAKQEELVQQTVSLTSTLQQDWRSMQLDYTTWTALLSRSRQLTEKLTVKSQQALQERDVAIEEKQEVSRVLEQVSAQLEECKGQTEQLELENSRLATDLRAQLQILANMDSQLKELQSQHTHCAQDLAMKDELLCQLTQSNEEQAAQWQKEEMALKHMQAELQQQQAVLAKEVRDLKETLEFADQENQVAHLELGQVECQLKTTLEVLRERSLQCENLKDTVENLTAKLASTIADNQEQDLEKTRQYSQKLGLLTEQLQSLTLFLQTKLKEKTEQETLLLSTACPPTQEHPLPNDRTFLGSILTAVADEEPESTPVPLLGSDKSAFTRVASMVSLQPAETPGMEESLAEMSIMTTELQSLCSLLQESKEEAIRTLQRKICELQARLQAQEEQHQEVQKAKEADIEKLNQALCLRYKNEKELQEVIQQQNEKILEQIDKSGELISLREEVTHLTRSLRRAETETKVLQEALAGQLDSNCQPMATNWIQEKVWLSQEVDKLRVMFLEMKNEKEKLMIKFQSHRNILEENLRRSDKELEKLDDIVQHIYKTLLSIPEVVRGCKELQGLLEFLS
UniProt Q9NS25: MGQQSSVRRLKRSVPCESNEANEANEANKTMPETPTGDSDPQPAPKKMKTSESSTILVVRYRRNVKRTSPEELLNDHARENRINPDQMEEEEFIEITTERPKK
UniProt P62316, whole entry, looked up: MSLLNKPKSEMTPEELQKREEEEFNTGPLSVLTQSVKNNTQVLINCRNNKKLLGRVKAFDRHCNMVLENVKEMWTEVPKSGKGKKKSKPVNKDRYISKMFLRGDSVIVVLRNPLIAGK
UniProt Q13596, whole entry, looked up: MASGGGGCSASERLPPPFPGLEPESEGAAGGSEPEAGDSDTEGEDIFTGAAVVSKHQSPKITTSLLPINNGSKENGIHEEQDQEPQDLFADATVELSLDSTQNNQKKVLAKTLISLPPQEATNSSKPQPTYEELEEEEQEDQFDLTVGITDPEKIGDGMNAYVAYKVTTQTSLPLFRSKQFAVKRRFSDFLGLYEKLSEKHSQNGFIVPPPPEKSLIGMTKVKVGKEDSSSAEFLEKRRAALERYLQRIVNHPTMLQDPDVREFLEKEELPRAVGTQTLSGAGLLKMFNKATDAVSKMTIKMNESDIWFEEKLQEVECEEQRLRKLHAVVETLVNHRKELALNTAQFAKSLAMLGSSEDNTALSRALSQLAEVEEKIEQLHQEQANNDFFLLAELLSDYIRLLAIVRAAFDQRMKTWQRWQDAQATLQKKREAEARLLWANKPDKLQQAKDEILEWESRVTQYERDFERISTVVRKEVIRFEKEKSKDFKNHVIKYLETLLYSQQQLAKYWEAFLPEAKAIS
UniProt Q92925, whole entry, looked up: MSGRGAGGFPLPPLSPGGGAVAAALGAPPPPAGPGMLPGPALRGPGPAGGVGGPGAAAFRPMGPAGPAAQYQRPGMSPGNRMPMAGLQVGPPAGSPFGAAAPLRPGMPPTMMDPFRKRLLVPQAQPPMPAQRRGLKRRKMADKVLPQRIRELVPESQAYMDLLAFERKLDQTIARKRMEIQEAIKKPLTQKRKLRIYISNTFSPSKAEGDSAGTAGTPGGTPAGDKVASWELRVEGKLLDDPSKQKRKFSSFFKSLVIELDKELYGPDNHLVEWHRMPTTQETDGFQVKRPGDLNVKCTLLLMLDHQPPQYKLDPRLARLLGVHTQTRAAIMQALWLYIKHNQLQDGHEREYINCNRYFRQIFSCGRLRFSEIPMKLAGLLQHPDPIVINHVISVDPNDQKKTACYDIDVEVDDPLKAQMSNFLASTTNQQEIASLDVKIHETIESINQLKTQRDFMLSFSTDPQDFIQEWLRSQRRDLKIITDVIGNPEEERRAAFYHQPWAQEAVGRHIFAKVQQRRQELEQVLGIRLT

Tests used:
Assay in all cases: log2 fold change, soluble protein after heating vs DMSO (PISA); higher = thermal stabilisation; K562 lysate, 10 uM; active = over 0.2 and 3.5 SD of the protein, either way, in both replicates (recomputed)
[1] = compound: CN1CC[C@H](c2c(O)cc(O)c3c(=O)cc(-c4ccccc4Cl)oc23)[C@H](O)C1 [alvocidib]
How it was run: (§1)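 Values give the log-two fold change in thermal stability against solvent controls, from duplicates. Crude K562 extract at 1 mg/mL protein, made by dounce homogenisation in PBS pH 7.4 with 1 mM MgCl2, was treated with 10 μM compound for 30 min. After 3 min heating across 48°C-58°C, aliquots were pooled, adjusted to 0.5% NP-40 at 4°C and centrifuged at 21,000xg for 90 min. The supernatant was measured by TMTpro 16plex LC-MS/MS with channel sums equalised.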

[2] = compound: CN1CCc2c(c3ccccc3n2Cc2ccc(C(=O)NO)cc2)C1 [Tubastatin A]
How it was run: as §1

[3] = compound: CNC(=O)C1=CC=CC=C1NC2=NC(=NC=C2Cl)NC3=C(C=C(C=C3)N4CCOCC4)OC
How it was run: as §1

[4] = compound: CNC(=O)c1ccc(Nc2ncc(C(F)(F)F)c(NCc3nccnc3N(C)S(C)(=O)=O)n2)cc1 [defactinib]
How it was run: as §1

[5] = compound: CNc1nc(-c2ccc3c(N)n[nH]c3c2)cc(N2C[C@@H](C(=O)NC3CCCCC3)CC[C@H]2C)n1
How it was run: as §1

[6] = compound: COC(=O)N[C@@H](C)CNc1nccc(-c2cn(C(C)C)nc2-c2cc(Cl)cc(NS(C)(=O)=O)c2F)n1 [encorafenib]
How it was run: as §1

[7] = compound: COC(=O)[C@H](CCSC)NC(=O)C1=C(C=C(C=C1)NC[C@H](CS)N)C2=CC=CC=C2
How it was run: as §1

[8] = compound: COc1cc(Nc2ncc3c(n2)-c2ccc(Cl)cc2C(c2c(F)cccc2OC)=NC3)ccc1C(=O)O [alisertib]
How it was run: as §1

[9] = compound: COc1cc2nc(-c3cc(F)ccc3O)nc(N[C@@H]3CNC[C@H]3C(C)(C)O)c2cc1OC
How it was run: as §1

[10] = compound: COc1cc2ncnc(Nc3ccc(F)c(Cl)c3)c2cc1OCCCN1CCOCC1 [gefitinib]
How it was run: as §1

Measured: log2 fold change

SOS1 (UniProt Q07889)
inactive: [1] -0.022 | [2] -0.105 | [3] -0.029 | [4] -0.055 | [5] 0.037 | [6] 0.051 | [7] 0.124 | [8] -0.007 | [9] 0.014 | [10] -0.055

SNRPE (UniProt P62304)
inactive: [1] -0.068 | [2] 0.023 | [3] 0.003 | [4] 0.009 | [5] 0.048 | [6] 0.043 | [7] 0.012 | [8] -0.016 | [9] 0.002 | [10] 0.005

SMUG1 (UniProt Q53HV7)
inactive: [1] -0.034 | [2] -0.157 | [3] 0.134 | [4] 0.081 | [5] 0.047 | [6] 0.13 | [7] -0.076 | [8] 0.059 | [9] 0.021 | [10] -0.137

SMARCB1 (UniProt Q12824)
inactive: [1] 0.048 | [2] -0.071 | [3] -0.003 | [4] 0.018 | [5] 0.003 | [6] -0.014 | [7] 0.152 | [8] -0.012 | [9] 0.005 | [10] -0.012

SNAP91 (UniProt O60641)
inactive: [1] -0.023 | [2] -0.031 | [3] -0.075 | [4] 0.071 | [5] -0.098 | [6] 0.111 | [7] -0.024 | [8] -0.054 | [9] 0.026 | [10] 0.061

SNRNP27 (UniProt Q8WVK2)
inactive: [1] -0.004 | [2] 0.065 | [3] -0.014 | [4] 0.039 | [5] -0.037 | [6] 0 | [7] -0.03 | [8] -0.038 | [9] 0.014 | [10] 0.038

SOD1 (UniProt P00441)
inactive: [1] 0.187 | [2] 0.012 | [3] 0.011 | [4] 0.015 | [5] -0.111 | [6] -0.009 | [7] -0.036 | [8] 0.026 | [9] -0.024 | [10] 0.074

SMNDC1 (UniProt O75940)
inactive: [1] -0.037 | [2] 0.053 | [3] 0.048 | [4] -0.004 | [5] 0.046 | [6] -0.033 | [7] -0.008 | [8] 0.021 | [9] 0.004 | [10] 0.014

SNX15 (UniProt Q9NRS6)
inactive: [1] 0.007 | [2] -0.028 | [3] 0.006 | [4] 0.076 | [5] -0.096 | [6] 0.002 | [7] -0.009 | [8] -0.03 | [9] 0.004 | [10] 0.003

SNRPG (UniProt P62308)
inactive: [1] -0.104 | [2] 0.02 | [3] 0.018 | [4] 0.014 | [5] 0.063 | [6] 0.005 | [7] -0.034 | [8] 0.003 | [9] 0.007 | [10] 0.02

SMU1 (UniProt Q2TAY7)
inactive: [1] 0.001 | [2] 0.024 | [3] -0.021 | [4] 0.005 | [5] -0.039 | [6] 0.014 | [7] 0.002 | [8] 0.006 | [9] 0.002 | [10] -0.034

SMIM8 (UniProt Q96KF7)
inactive: [1] -0.01 | [2] 0.034 | [3] -0.041 | [4] 0.034 | [5] 0.066 | [6] 0.028 | [7] 0.078 | [8] 0.062 | [9] 0.014 | [10] -0.015

SNRNP200 (UniProt O75643)
inactive: [1] -0.001 | [2] -0.02 | [3] -0.003 | [4] 0.008 | [5] -0.002 | [6] 0.004 | [7] 0.053 | [8] 0.006 | [9] 0.001 | [10] -0.009

9 successive records already listed, for reference:
SNAP91 (UniProt O60641)
inactive: [1] -0.023 | [2] -0.031 | [3] -0.075 | [4] 0.071 | [5] -0.098 | [6] 0.111 | [7] -0.024 | [8] -0.054 | [9] 0.026 | [10] 0.061

SNRNP27 (UniProt Q8WVK2)
inactive: [1] -0.004 | [2] 0.065 | [3] -0.014 | [4] 0.039 | [5] -0.037 | [6] 0 | [7] -0.03 | [8] -0.038 | [9] 0.014 | [10] 0.038

SOD1 (UniProt P00441)
inactive: [1] 0.187 | [2] 0.012 | [3] 0.011 | [4] 0.015 | [5] -0.111 | [6] -0.009 | [7] -0.036 | [8] 0.026 | [9] -0.024 | [10] 0.074

SMNDC1 (UniProt O75940)
inactive: [1] -0.037 | [2] 0.053 | [3] 0.048 | [4] -0.004 | [5] 0.046 | [6] -0.033 | [7] -0.008 | [8] 0.021 | [9] 0.004 | [10] 0.014

SNX15 (UniProt Q9NRS6)
inactive: [1] 0.007 | [2] -0.028 | [3] 0.006 | [4] 0.076 | [5] -0.096 | [6] 0.002 | [7] -0.009 | [8] -0.03 | [9] 0.004 | [10] 0.003

SNRPG (UniProt P62308)
inactive: [1] -0.104 | [2] 0.02 | [3] 0.018 | [4] 0.014 | [5] 0.063 | [6] 0.005 | [7] -0.034 | [8] 0.003 | [9] 0.007 | [10] 0.02

SMU1 (UniProt Q2TAY7)
inactive: [1] 0.001 | [2] 0.024 | [3] -0.021 | [4] 0.005 | [5] -0.039 | [6] 0.014 | [7] 0.002 | [8] 0.006 | [9] 0.002 | [10] -0.034

SMIM8 (UniProt Q96KF7)
inactive: [1] -0.01 | [2] 0.034 | [3] -0.041 | [4] 0.034 | [5] 0.066 | [6] 0.028 | [7] 0.078 | [8] 0.062 | [9] 0.014 | [10] -0.015

SNRNP200 (UniProt O75643)
inactive: [1] -0.001 | [2] -0.02 | [3] -0.003 | [4] 0.008 | [5] -0.002 | [6] 0.004 | [7] 0.053 | [8] 0.006 | [9] 0.001 | [10] -0.009

Continued:

SMCR8 (UniProt Q8TEV9)
inactive: [1] -0.068 | [2] -0.006 | [3] 0.018 | [4] 0.17 | [5] 0.078 | [6] -0.054 | [7] 0.042 | [8] -0.036 | [9] 0.037 | [10] -0.05

SNRPC (UniProt Q5TAL2)
inactive: [1] 0.012 | [2] 0.067 | [3] 0.008 | [4] -0.039 | [5] 0.136 | [6] 0.032 | [7] -0.05 | [8] -0.05 | [9] 0.013 | [10] -0.164

SMC2 (UniProt O95347)
inactive: [1] 0.039 | [2] -0.087 | [3] -0.004 | [4] -0.003 | [5] -0.022 | [6] -0.005 | [7] 0.047 | [8] 0.005 | [9] 0.003 | [10] -0.003

SMYD5 (UniProt Q6GMV2)
inactive: [1] -0.031 | [2] 0.014 | [3] 0.016 | [4] -0.024 | [5] -0.007 | [6] -0.055 | [7] 0.028 | [8] -0.032 | [9] 0.01 | [10] 0.016

SNX9 (UniProt Q9Y5X1)
inactive: [1] 0.02 | [2] -0.118 | [3] 0.008 | [4] 0.027 | [5] -0.065 | [6] 0.007 | [7] 0.01 | [8] -0.01 | [9] 0.023 | [10] -0.005

SPARC (UniProt P09486)
inactive: [1] -0.025 | [2] -0.061 | [3] -0.202 | [4] 0.02 | [5] -0.101 | [6] -0.016 | [7] -0.11

SMARCA5 (UniProt O60264)
inactive: [1] -0.014 | [2] -0.075 | [3] -0.029 | [4] -0.027 | [5] 0.024 | [6] 0.019 | [7] 0.073 | [8] 0.012 | [9] 0.009 | [10] 0.005

SPAG5 (UniProt Q96R06)
inactive: [1] -0.019 | [2] -0.119 | [3] 0.031 | [4] 0.008 | [5] 0.003 | [6] 0.071 | [7] -0.081 | [8] -0.01 | [9] -0.017 | [10] 0.019

SPANXB1 (UniProt Q9NS25)
inactive: [1] -0.124

SMIM10L1 (UniProt P0DMW3)
inactive: [1] -0.068

SNRNP40 (UniProt Q96DI7)
inactive: [1] -0.026 | [2] 0.021 | [3] -0.019 | [4] -0.009 | [5] -0.021 | [6] -0.025 | [7] -0.01 | [8] 0.016 | [9] -0.004 | [10] -0.01

SNRPD2 (UniProt P62316)
inactive: [1] -0.054 | [2] 0.027 | [3] -0.003 | [4] -0.019 | [5] 0.021 | [6] 0.005 | [7] -0.027 | [8] 0.014 | [9] 0.029 | [10] -0.02

SNX6, A0A0A0MRI2
inactive: [1] 0.076 | [2] -0.051 | [3] 0.004 | [4] 0.008 | [5] -0.024 | [6] 0.007 | [7] 0.171 | [8] -0.008 | [9] -0.003 | [10] -0.01

SNF8 (UniProt Q96H20)
inactive: [1] -0.026 | [2] 0.006 | [3] -0.036 | [4] 0.015 | [5] -0.029 | [6] 0.026 | [7] 0.038 | [8] -0.012 | [9] 0 | [10] -0.013

SNX2 (UniProt O60749)
inactive: [1] 0.001 | [2] -0.027 | [3] 0.007 | [4] 0.007 | [5] -0.014 | [6] 0.001 | [7] 0.081 | [8] 0.003 | [9] 0.011 | [10] -0.013

SNX1 (UniProt Q13596)
inactive: [1] -0.001 | [2] 0.002 | [3] 0.015 | [4] -0.001 | [5] -0.017 | [6] 0.019 | [7] 0.021 | [8] 0.009 | [9] -0.014 | [10] -0.011

SMARCD2 (UniProt Q92925)
inactive: [1] 0.008 | [2] -0.089 | [3] 0.011 | [4] -0.023 | [5] -0.015 | [6] -0.01 | [7] 0.059 | [8] -0.005 | [9] -0.008 | [10] -0.006

SNRPD1 (UniProt P62314)
inactive: [1] -0.055 | [2] 0.013 | [3] 0.038 | [4] -0.014 | [5] 0.044 | [6] -0.013 | [7] 0.016 | [8] -0.022 | [9] 0.005 | [10] 0.007

SOCS2 (UniProt O14508)
inactive: [1] -0.068 | [2] 0.05 | [3] 0.01 | [4] -0.091 | [5] 0.013 | [6] -0.008 | [7] -0.104 | [8] -0.013 | [9] -0.02 | [10] -0.027
